Source: paper PMC12691677
These are yes or no findings as the source states them, for the method shown. Some entries that bind do so weakly or less than the wild type. Sequences can lack the tags named with a protein.

B1: NifM (bacterial two-hybrid fusion) (protein, UniProt P0A3Z0 1-266)
chain: MNPWQRFARQRLARSRWNRDPAALDPADTPAFEQAWQRQCHMEQTIVARVPEGDIPAALLENIAASLAIWLDEGDFAPPERAAIVRHHARLELAFADIARQAPQPDLSTVQAWYLRHQTQFMRPEQRLTRHLLLTVDNDREAVHQRILGLYRQINASRDAFAPLAQRHSHCPSALEEGRLGWISRGLLYPQLETALFSLAENALSLPIASELGWHLLWCEAIRPAAPMEPQQALESARDYLWQQSQQRHQRQWLEQMISRQPGLCG
B2: NifM (His-tagged, purified) (protein, UniProt P0A3Z0 1-266)
chain: B1 chain

Assays:
[1] = target: T1, NifH (bacterial two-hybrid fusion) (K. oxytoca) (UniProt P00458); assay: two-hybrid; bacterial two-hybrid (BTH), fusions to the T18 and T25 fragments of B. pertussis adenylate cyclase (pUT18C, pKT25) in E. coli BTH101; preculture in LB with 200 uM IPTG for 48 h, spotted on LB with X-gal, 30°C, 12 h; blue colour
T1 sequence: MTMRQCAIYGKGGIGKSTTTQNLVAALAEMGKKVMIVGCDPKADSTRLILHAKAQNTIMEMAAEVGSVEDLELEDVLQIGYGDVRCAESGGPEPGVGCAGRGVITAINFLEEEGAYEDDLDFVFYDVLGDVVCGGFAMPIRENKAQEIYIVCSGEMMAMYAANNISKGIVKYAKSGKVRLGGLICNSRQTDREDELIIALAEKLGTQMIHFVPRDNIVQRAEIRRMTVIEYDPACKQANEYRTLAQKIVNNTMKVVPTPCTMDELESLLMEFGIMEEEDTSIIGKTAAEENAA

[2] = target: NifM (His-tagged, purified) (K. oxytoca) (UniProt P0A3Z0); assay: SEC; Superdex 200; His-tagged NifM after Ni-NTA (PBS with imidazole), concentrated to 0.5 mL; molecular weight from the elution volume against marker proteins; both purified

Binder | binding [1] | binding [2]
B1 | binds | 
B2 |  | no binding
